Assay results: publication PMC8102003

Protein sequences, listed by entry. Tags and fused reporters are not part of them. Lines headed by an entry give the natural chain unless they say otherwise; changes in a name come on top.
UniProt Q7Z2W4: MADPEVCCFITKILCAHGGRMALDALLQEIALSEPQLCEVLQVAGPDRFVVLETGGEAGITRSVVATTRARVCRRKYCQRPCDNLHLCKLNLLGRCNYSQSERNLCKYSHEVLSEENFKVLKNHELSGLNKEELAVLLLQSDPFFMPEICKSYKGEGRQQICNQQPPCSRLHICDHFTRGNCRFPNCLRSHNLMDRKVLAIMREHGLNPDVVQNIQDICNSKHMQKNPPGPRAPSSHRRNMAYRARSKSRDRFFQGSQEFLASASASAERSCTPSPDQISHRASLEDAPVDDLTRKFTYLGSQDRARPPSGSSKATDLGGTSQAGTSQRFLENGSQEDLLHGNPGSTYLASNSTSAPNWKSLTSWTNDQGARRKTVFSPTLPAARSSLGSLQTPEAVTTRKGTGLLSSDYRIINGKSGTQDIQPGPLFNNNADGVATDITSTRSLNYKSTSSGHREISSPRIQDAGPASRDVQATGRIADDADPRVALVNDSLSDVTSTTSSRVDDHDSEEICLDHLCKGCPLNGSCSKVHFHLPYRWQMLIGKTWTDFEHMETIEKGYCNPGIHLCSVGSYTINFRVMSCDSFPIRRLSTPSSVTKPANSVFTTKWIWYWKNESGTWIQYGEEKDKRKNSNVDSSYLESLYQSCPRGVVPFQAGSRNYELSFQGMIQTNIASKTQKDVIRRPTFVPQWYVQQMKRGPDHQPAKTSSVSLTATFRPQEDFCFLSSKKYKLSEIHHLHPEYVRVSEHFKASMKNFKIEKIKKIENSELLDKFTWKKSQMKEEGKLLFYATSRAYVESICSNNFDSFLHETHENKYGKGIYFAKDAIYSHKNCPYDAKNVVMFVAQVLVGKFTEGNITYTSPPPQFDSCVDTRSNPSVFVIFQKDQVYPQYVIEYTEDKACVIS
UniProt Q14258: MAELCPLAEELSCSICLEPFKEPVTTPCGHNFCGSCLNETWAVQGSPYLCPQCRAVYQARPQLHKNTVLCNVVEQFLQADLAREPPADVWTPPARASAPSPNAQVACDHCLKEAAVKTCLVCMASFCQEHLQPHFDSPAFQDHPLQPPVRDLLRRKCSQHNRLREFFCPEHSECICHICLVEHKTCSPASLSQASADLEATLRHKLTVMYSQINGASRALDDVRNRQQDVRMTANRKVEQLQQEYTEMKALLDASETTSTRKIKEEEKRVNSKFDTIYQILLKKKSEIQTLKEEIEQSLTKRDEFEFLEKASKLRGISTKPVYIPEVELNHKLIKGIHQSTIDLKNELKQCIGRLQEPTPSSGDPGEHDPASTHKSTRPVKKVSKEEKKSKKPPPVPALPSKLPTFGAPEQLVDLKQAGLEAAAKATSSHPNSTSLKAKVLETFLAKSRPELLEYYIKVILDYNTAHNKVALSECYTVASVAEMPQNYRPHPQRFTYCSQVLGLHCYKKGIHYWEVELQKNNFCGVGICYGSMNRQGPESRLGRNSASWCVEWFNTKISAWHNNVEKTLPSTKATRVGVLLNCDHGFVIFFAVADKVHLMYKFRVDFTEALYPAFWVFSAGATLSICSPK

Experiments:
[1] = target: human ZAP-L-HA (full-length long isoform, wild type) (human) (UniProt Q7Z2W4); test: co-IP; HEK293T ZAP-/- TRIM25-/- cells co-transfected with HA-tagged ZAP (WT, ΔZnF or RNA^null) and untagged TRIM25 or TRIM25 7KA; anti-HA precipitation; western blot for overexpressed ZAP and TRIM25 (Fig 5G)
[2] = target: ZAP RNA^null (human ZAP-L R74A, R75A, K76A)-3xHA (human) (UniProt Q7Z2W4); test: as above

## TRIM25 7KA (TRIM25 RNA binding mutant, lysine cluster at 381–391 replaced by alanines) (from UniProt Q14258)
[1]
  binding: binds
[2]
  binding: binds

These are yes or no findings as the source states them, for the method shown. Binding seen in cells or lysates may run through a third protein. Binding can be weak; no strength is given.
